Results are given in words; binding and its absence hold for the method and conditions named. Some results given as binding are weak or reduced against the parent protein; the word gives no strength.
How the values were obtained:
Assay in all cases: peptide or protein array; HuProt human proteome microarray; 5 ug/5 ml biotin-labelled LUBAC or OTULIN in solution, 1 h at room temperature; Cy5-streptavidin, scanned at 635 nm; BSA as negative control; hits: Z-score >= 3 and I_(Mean_Ratio) >= 1.4; both purified
[1] = target: T1, ACSL6 (human) (UniProt Q9UKU0)
T1 sequence: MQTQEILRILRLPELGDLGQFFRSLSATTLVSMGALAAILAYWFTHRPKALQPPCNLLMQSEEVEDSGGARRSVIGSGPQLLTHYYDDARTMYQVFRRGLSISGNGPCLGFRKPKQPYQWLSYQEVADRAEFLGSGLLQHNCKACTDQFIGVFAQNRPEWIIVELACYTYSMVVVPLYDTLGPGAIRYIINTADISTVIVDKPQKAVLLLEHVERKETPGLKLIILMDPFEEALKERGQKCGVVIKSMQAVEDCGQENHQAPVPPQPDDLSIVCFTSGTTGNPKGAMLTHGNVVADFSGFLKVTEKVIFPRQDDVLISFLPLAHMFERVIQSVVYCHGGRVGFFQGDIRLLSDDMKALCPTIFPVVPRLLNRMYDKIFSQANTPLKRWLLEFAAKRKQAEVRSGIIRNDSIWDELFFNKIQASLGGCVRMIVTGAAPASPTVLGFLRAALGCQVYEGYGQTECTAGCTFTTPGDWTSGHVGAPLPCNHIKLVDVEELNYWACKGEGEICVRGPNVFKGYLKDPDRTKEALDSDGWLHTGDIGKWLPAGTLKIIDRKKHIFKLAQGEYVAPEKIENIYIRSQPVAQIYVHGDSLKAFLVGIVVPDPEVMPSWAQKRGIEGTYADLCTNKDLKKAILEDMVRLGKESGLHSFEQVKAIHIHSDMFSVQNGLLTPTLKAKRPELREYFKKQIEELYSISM

Sequences of proteins named here, by UniProt entry; tags and fusion partners are left off. Residues count along the entry.
UniProt P26378: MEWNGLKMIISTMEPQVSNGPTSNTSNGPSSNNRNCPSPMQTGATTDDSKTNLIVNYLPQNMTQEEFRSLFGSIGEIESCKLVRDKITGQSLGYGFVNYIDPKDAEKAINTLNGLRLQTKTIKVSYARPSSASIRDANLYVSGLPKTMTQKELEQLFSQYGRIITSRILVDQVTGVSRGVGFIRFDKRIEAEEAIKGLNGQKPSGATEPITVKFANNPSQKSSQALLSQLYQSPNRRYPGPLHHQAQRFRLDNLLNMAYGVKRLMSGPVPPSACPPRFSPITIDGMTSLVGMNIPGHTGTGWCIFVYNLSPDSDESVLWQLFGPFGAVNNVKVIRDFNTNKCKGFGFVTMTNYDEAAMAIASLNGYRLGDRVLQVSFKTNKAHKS
UniProt P09651: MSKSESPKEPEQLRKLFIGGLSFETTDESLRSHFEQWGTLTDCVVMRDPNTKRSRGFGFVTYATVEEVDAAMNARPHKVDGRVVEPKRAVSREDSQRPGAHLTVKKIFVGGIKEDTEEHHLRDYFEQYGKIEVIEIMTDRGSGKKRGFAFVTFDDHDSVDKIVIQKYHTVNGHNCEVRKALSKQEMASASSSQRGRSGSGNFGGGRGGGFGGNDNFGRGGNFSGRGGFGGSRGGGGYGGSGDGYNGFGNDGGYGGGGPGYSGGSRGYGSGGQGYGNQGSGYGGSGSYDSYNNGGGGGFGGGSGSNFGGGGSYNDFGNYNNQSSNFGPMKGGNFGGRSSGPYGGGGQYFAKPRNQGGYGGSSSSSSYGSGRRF
UniProt P07910: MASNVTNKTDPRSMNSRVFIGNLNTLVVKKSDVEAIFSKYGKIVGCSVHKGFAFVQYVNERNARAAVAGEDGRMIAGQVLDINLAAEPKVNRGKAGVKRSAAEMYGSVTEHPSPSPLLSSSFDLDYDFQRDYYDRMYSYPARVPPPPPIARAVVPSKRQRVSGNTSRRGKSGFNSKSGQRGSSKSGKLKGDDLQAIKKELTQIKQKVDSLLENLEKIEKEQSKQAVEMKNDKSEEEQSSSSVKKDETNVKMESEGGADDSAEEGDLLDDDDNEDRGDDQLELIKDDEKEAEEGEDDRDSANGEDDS
UniProt P02686: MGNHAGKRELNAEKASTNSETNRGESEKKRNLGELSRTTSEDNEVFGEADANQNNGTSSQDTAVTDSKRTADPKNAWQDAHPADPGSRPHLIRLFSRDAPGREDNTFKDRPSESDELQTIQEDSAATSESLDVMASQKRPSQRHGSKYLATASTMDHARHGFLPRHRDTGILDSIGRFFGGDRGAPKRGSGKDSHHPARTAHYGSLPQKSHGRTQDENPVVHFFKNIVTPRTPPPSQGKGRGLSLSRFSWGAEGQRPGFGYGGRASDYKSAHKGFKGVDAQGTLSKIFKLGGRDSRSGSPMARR
UniProt Q9NXA8, residues 37-310: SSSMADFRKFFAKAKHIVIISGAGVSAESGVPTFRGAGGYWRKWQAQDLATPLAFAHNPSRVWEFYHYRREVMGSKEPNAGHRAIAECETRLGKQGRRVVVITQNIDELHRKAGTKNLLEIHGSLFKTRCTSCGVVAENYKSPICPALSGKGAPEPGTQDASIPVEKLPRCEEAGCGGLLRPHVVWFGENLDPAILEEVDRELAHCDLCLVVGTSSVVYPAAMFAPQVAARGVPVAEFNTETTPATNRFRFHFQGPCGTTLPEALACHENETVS

[2] = target: ELAVL4 (human) (UniProt P26378)
[3] = target: HNRNPA1 (human) (UniProt P09651)
[4] = target: HNRNPC (human) (UniProt P07910)
[5] = target: MBP (human) (UniProt P02686)
[6] = target: SIRT5 (spot on the microarray) (human) (UniProt Q9NXA8)
[7] = target: T2, SORBS1 (human) (UniProt Q9BX66)
T2 sequence: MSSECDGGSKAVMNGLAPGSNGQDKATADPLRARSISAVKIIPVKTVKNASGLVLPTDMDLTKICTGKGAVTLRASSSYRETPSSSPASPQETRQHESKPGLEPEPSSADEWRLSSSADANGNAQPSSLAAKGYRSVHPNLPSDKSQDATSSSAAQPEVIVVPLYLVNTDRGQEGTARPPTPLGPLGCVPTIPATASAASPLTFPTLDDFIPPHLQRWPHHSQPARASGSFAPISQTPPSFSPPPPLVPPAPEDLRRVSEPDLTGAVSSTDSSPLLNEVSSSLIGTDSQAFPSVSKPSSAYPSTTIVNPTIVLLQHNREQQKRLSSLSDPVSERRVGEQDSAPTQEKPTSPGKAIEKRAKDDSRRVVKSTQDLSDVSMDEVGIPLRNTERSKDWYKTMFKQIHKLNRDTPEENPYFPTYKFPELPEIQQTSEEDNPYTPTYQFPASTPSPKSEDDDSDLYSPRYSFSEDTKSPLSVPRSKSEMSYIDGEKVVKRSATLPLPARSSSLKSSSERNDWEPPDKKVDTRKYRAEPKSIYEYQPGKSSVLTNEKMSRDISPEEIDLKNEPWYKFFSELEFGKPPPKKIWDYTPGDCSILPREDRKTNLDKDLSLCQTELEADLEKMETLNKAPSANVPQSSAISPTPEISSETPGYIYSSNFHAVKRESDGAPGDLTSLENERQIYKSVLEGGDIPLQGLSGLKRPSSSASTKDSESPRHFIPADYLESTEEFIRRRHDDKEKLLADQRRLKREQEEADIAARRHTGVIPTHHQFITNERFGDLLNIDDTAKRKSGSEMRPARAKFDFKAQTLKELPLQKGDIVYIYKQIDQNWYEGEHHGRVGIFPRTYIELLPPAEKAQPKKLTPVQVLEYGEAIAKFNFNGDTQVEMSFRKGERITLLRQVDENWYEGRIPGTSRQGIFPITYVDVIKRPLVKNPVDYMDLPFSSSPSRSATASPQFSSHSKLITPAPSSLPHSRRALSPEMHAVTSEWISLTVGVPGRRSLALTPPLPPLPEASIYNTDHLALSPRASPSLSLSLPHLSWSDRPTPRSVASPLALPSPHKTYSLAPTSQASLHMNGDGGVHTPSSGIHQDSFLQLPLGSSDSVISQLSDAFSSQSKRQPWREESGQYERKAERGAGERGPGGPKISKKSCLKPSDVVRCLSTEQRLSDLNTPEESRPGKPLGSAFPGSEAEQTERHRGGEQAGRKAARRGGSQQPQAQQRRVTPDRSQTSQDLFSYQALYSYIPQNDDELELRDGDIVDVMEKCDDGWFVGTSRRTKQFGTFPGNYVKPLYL

| binding [1] | binding [2] | binding [3] | binding [4] | binding [5] | binding [6] | binding [7] | Substance |
| --- | --- | --- | --- | --- | --- | --- | --- |
| binds | binds | binds | binds | binds | binds | binds | OTULIN (OTU deubiquitinase with linear linkage specificity, FAM105B), His-tagged, biotin-labelled (from UniProt Q96BN8 1-352) (enzyme) |
| binds | binds | binds | binds | binds | binds | binds | linear ubiquitin chain assembly complex (LUBAC), purified as HIS-tagged HOIP with the subunit HOIL-1, biotin-labelled (from UniProt Q96EP0 1-1072; Q9BYM8 1-510) |
